We go through 8 molecules from patent publication US20250179160A1.

Substitutions are numbered along the chain they refer to. Results are given in words; binding and its absence hold for the method and conditions named. Binding can be weak; no strength is given.

To fix the notation:
B1: 1F9, hybridoma supernatant (antibody, V domains shown)
VH: EVKLEESGGGLVQPGGSMKLSCVASGFTFGSYWMSWVRQSPEKGLEWVAEIRLKSDNYAAHYAESVKGKFTISRDDSKSRLYLQMNSLRGEDTGIYYCTNAWFASWGQGTLVTVSA
VL: DIVMSQSPSSLTVSVGEKVTMSCMSSQSLLYSKDQKNYLAWYQQKPGQSPTLLIYWASTRESGVPDRFTGSGSGTDFTLTISSVKAEDLAVYYCLQYYTYPYTFGGGTKLEIKR
B2: 18F5, hybridoma supernatant (antibody, V domains shown)
VH: B1 VH with S31N, A60T, I95L
VL: B1 VL with T12A, T51K
B3: 2A4, hybridoma supernatant (antibody, V domains shown)
VH: B1 VH with G30S, S31T, A60T, A63T, G90V, S105Y
VL: B1 VL with T12A, V19F, M24K, K33R, K45Q, T51K, A86T, T99S
B4: 20A1, hybridoma supernatant (antibody, V domains shown)
VH: B1 VH with V23I, G30S, S31T, D56E, A60T, H61Y, T71I, G90A, S105N
VL: B1 VL with T12V, M24K, S28N, K33R, T51N, T78S, T99S, I112M
B5: 20A1, purified recombinant, human IgG4 (antibody, V domains shown)
VH: B1 VH with V23I, G30S, S31T, D56E, A60T, H61Y, T71I, G90A, S105N
VL: B1 VL with T12V, M24K, S28N, K33R, T51N, T78S, T99S, I112M
B6: 18F5, purified recombinant, human IgG4 (antibody, V domains shown)
VH: B1 VH with S31N, A60T, I95L
VL: B1 VL with T12A, T51K
B7: 1F9, purified recombinant, human IgG4 (antibody, V domains shown)
VH: B1 VH
VL: B1 VL
B8: 2A4, purified recombinant, human IgG4 (antibody, V domains shown)
VH: B1 VH with G30S, S31T, A60T, A63T, G90V, S105Y
VL: B1 VL with T12A, V19F, M24K, K33R, K45Q, T51K, A86T, T99S

The target in one assay is recombinant human Pro-Factor D (human). As to the kind of experiment: capture ELISA: recombinant Factor D captured by plate-bound goat polyclonal AF1824; hybridoma supernatant diluted two-fold; HRP goat anti-mouse IgG Fc; OD450.
As to B1, the binding entry is recorded as “binds”.

For the molecule B2, the binding entry is recorded as “binds”.

B3: the binding result is given as “binds”.

As to B4, the binding entry is recorded as “binds”.

The next assay has the same target. As to the kind of experiment: ELISA; antibody from 3 µg/ml in 3-fold dilutions on plates coated with 1 µg/ml antigen (FIG. 17A).
For the molecule B5, the binding entry was “binds”.

With B6, the binding result is “binds”.

For B7, the binding entry is recorded as “binds”.

As to B8, the binding entry was “binds”.

For a further assay the target is unchanged. Nature of the assay: ELISA: antibody titrated 3-fold from 3 ug/ml on plate coated with 1 ug/ml recombinant human pro-Factor D; HRP anti-mouse, rat or human secondary; OD450. In general terms: ELISA stands for enzyme-linked immunosorbent assay.
As for B5, the binding entry is “binds”.

Take B6: the binding result was “binds”.

With B7, the binding entry is “binds”.

B8: the binding result is recorded as “binds”.

For another assay the target is unchanged. As to the kind of experiment: ELISA (legend of FIG. 17A).
Turning to B5, the binding entry is “binds”.

With B6, the binding entry was “binds”.

B7: the binding entry was “binds”.

Consider B8, for which the binding result is recorded as “binds”.

A further assay addresses recombinant human Pro-Factor D-His (human). As to the kind of experiment: ELISA with hybridoma supernatant on immobilized antigen.
Turning to B1, the binding result was “binds”.

In the case of B2, the binding entry is given as “binds”.

On to B3, for which the binding result is on record as “binds”.

For B4, the binding entry is listed as “binds”.

The target of the next assay is recombinant human Pro-Factor D (human). Nature of the assay: capture ELISA; antigen captured by goat polyclonal AF1824, hybridoma supernatant as detector (FIG. 15).
For the molecule B1, the binding result is on record as “binds”.

Regarding B2, the binding result is “binds”.

With B3, the binding entry is reported as “binds”.

For the molecule B4, the binding result is recorded as “binds”.
